Record: PubChem BioAssay AID1259425 (University of Nebraska Medical Center, 2018)

Aim: 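Compare each knockdown with KSR1 silencing using changes in marker transcripts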 (primary screen)
Cells: HCT116 human colon cancer cells
Reagent: siRNA pool against human genes, 50 nM siRNA
Detection: 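After 50 nM siRNA pool, branched-DNA assay measures six marker transcripts per well, minus blank, normalised to the geometric mean of two housekeeping transcripts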
Direction: BNIP3L mRNA: higher = more BNIP3L transcript after knockdown
The whole screen tested about 14,000 reagents; shown is a part drawn at random. Not all columns of the deposit are shown. Not stated in the record: the time to read-out.

{"gene":"BRD9 (GeneID 65980)","BNIP3L mRNA, set 1":0.13}
{"gene":"AJUBA (GeneID 84962)","BNIP3L mRNA, set 1":0.15}
{"gene":"RPTOR (GeneID 57521)","BNIP3L mRNA, set 1":0.0484}
{"gene":"TM9SF4 (GeneID 9777)","BNIP3L mRNA, set 1":0.13}
{"gene":"DCLK3 (GeneID 85443)","BNIP3L mRNA, set 1":0.0504}
{"gene":"ADGRG3 (GeneID 222487)","BNIP3L mRNA, set 1":0.243}

The list goes on, starting with the last 2 of the part before.
{"gene":"DCLK3 (GeneID 85443)","BNIP3L mRNA, set 1":0.0504}
{"gene":"ADGRG3 (GeneID 222487)","BNIP3L mRNA, set 1":0.243}
{"gene":"UNC80 (GeneID 285175)","BNIP3L mRNA, set 1":0.275}
{"gene":"ERP29 (GeneID 10961)","BNIP3L mRNA, set 1":0.123}
{"gene":"UNC93B1 (GeneID 81622)","BNIP3L mRNA, set 1":0.133}
{"gene":"EGR1 (GeneID 1958)","BNIP3L mRNA, set 1":0.0726}
{"gene":"PIGV (GeneID 55650)","BNIP3L mRNA, set 1":0.0642}
{"gene":"TCEA3 (GeneID 6920)","BNIP3L mRNA, set 1":0.108}
